PMC8959180
Numbering of substitutions follows the chain as printed. Numbers in names are those of the source. These are yes or no findings as the source states them, for the method shown. Some results given as binding are weak or reduced against the parent protein; the word gives no strength. Tags and fused reporters may be left off the sequences shown.

T1: MurA (bacterial two hybrid fusions to T18 and T25) (L. monocytogenes) (UniProt Q8Y4C4)
T1 sequence: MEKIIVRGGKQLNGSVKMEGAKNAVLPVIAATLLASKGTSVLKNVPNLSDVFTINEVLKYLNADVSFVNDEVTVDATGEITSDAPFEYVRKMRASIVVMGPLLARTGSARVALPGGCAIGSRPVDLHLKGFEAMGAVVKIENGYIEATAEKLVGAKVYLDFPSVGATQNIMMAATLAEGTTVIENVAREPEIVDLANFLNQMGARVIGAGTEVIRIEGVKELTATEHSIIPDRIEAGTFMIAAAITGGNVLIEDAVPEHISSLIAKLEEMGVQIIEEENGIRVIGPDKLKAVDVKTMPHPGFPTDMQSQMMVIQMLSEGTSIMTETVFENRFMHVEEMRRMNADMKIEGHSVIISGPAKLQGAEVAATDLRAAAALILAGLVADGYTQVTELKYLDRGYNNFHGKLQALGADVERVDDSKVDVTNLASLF

B1: MurA (bacterial two hybrid fusions to T18 and T25) (enzyme, UniProt Q8Y4C4 1-430)
chain: T1 sequence
B2: MurA S262L (bacterial two hybrid fusions to T25) (enzyme, UniProt Q8Y4C4 1-430)
chain: T1 sequence with S262L
B3: MurA N197D (bacterial two hybrid fusions to T25) (enzyme, UniProt Q8Y4C4 1-430)
chain: T1 sequence with N197D

What follows are binders tested against T1, MurA (bacterial two hybrid fusions to T18 and T25) (L. monocytogenes) (assay: two-hybrid).

Binder	binding
B1	binds
B2	binds
B3	binds
